Measurements reported in article doi:10.1101/2025.05.27.656397, “A new heme enzyme family forms hydrazine groups in diverse biosynthetic pathways” (bioRxiv, 2025).
Results are given in words; binding and its absence hold for the method and conditions named. For part of these data: In cells and extracts the contact can be indirect. Some entries that bind do so weakly or less than the wild type. Where a sequence is shown, tags or fusion partners need not be part of it. Blank lines part the entries; values can stand above or below the binder they belong to.

Experiments:
[1] = target: T1, His6-KinJ (N-terminal His6 tag), co-expressed with KinI (Streptomyces murayamaensis ATCC 21414); test: pull-down; proteins co-expressed in E. coli, His6 tag on one partner at the N- or C-terminus, expressed aerobically, purified anaerobically; partner found in the affinity-purified material
T1 sequence: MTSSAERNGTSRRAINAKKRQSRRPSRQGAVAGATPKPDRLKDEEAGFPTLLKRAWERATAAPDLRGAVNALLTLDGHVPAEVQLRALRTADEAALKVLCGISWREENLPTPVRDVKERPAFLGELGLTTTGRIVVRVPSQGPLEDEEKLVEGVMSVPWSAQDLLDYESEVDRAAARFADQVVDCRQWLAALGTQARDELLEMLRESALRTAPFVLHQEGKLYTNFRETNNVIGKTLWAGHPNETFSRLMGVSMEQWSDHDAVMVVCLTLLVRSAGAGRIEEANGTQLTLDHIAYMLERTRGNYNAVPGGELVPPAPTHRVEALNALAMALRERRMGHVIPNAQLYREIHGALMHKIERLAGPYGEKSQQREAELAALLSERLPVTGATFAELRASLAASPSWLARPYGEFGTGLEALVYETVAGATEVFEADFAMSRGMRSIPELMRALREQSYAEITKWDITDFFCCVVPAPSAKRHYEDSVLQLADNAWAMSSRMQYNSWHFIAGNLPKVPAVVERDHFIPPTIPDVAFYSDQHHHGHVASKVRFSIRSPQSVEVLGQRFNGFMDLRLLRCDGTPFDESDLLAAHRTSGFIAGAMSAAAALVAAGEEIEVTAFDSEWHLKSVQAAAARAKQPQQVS

[2] = target: T2, KinJ with C-terminal His6 tag, co-expressed with KinI (Streptomyces murayamaensis ATCC 21414); test: as above
T2 sequence: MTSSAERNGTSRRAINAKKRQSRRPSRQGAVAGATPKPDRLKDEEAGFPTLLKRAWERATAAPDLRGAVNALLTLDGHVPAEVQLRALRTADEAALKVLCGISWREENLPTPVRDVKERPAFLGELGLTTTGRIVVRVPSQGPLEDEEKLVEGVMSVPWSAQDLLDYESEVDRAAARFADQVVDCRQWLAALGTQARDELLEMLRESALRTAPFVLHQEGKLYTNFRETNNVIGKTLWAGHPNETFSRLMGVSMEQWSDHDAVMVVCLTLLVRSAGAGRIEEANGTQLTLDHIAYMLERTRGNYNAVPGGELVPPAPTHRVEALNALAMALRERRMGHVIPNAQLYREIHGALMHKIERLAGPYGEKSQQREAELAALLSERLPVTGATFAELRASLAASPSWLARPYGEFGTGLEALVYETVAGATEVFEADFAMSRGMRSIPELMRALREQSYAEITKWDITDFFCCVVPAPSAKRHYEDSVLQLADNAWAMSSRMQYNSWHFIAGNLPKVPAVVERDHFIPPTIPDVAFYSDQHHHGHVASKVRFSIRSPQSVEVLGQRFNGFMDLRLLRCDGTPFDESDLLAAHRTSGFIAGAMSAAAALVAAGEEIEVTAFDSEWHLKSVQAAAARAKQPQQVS

[3] = target: T3, KinJ from Streptomyces murayamaensis ATCC 21414 (tag placement not stated for the experiment) (Streptomyces murayamaensis ATCC 21414); test: SEC; anaerobic size exclusion chromatography of proteins expressed alone or co-expressed and purified; both purified
T3 sequence: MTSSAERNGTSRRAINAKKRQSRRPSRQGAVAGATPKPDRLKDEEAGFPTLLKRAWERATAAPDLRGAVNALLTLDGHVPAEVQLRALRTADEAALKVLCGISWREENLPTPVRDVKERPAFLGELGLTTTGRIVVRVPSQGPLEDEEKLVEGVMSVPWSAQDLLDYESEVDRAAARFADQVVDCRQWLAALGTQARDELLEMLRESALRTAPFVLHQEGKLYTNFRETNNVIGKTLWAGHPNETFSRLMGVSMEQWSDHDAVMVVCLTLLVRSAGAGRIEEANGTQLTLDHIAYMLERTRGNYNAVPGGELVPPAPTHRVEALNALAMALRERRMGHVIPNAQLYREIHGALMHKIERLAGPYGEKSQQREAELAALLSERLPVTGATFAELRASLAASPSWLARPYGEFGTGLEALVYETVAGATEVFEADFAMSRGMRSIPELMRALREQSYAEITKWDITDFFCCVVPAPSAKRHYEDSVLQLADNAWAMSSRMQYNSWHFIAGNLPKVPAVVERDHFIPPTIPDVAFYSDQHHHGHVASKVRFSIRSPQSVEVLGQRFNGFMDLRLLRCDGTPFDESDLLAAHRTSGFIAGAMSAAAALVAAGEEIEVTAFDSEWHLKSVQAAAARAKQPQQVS

[4] = target: T4, C-terminally His6-tagged KinI (ferredoxin) (S. murayamaensis); test: pull-down; proteins co-expressed in E. coli, His6 tag on one partner at the N- or C-terminus, expressed aerobically, purified anaerobically; partner found in the affinity-purified material
T4 sequence: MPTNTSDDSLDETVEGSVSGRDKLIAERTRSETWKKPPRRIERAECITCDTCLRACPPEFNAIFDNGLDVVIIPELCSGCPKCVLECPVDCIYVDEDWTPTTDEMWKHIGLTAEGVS

[5] = target: T5, N-terminally His6-tagged KinI (ferredoxin) (S. murayamaensis); test: as above
T5 sequence: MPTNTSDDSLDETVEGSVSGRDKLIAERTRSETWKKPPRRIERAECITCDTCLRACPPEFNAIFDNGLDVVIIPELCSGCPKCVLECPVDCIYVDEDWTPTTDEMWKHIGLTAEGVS

B2: KinI (ferredoxin; tag placement not stated for the experiment) (protein)
chain: MPTNTSDDSLDETVEGSVSGRDKLIAERTRSETWKKPPRRIERAECITCDTCLRACPPEFNAIFDNGLDVVIIPELCSGCPKCVLECPVDCIYVDEDWTPTTDEMWKHIGLTAEGVS
binding [3]: binds

B3: KinJ from Streptomyces murayamaensis ATCC 21414, co-expressed with His6-tagged KinI (prey of the pull-down) (enzyme, UniProt A0A385LMJ2 1-639)
chain: MTSSAERNGTSRRAINAKKRQSRRPSRQGAVAGATPKPDRLKDEEAGFPTLLKRAWERATAAPDLRGAVNALLTLDGHVPAEVQLRALRTADEAALKVLCGISWREENLPTPVRDVKERPAFLGELGLTTTGRIVVRVPSQGPLEDEEKLVEGVMSVPWSAQDLLDYESEVDRAAARFADQVVDCRQWLAALGTQARDELLEMLRESALRTAPFVLHQEGKLYTNFRETNNVIGKTLWAGHPNETFSRLMGVSMEQWSDHDAVMVVCLTLLVRSAGAGRIEEANGTQLTLDHIAYMLERTRGNYNAVPGGELVPPAPTHRVEALNALAMALRERRMGHVIPNAQLYREIHGALMHKIERLAGPYGEKSQQREAELAALLSERLPVTGATFAELRASLAASPSWLARPYGEFGTGLEALVYETVAGATEVFEADFAMSRGMRSIPELMRALREQSYAEITKWDITDFFCCVVPAPSAKRHYEDSVLQLADNAWAMSSRMQYNSWHFIAGNLPKVPAVVERDHFIPPTIPDVAFYSDQHHHGHVASKVRFSIRSPQSVEVLGQRFNGFMDLRLLRCDGTPFDESDLLAAHRTSGFIAGAMSAAAALVAAGEEIEVTAFDSEWHLKSVQAAAARAKQPQQVS
binding [4]: binds
binding [5]: binds

Next, values leading:

binding [1]: binds
binding [2]: binds
B1: KinI (ferredoxin), co-expressed with His6-tagged KinJ (prey of the pull-down) (protein, UniProt A0A385LT12 1-117)
chain: MPTNTSDDSLDETVEGSVSGRDKLIAERTRSETWKKPPRRIERAECITCDTCLRACPPEFNAIFDNGLDVVIIPELCSGCPKCVLECPVDCIYVDEDWTPTTDEMWKHIGLTAEGVS

binding [3]: no binding
B4: KinJ from Streptomyces murayamaensis ATCC 21414 (tag placement not stated for the experiment) (enzyme, UniProt A0A385LMJ2 1-639)
chain: MTSSAERNGTSRRAINAKKRQSRRPSRQGAVAGATPKPDRLKDEEAGFPTLLKRAWERATAAPDLRGAVNALLTLDGHVPAEVQLRALRTADEAALKVLCGISWREENLPTPVRDVKERPAFLGELGLTTTGRIVVRVPSQGPLEDEEKLVEGVMSVPWSAQDLLDYESEVDRAAARFADQVVDCRQWLAALGTQARDELLEMLRESALRTAPFVLHQEGKLYTNFRETNNVIGKTLWAGHPNETFSRLMGVSMEQWSDHDAVMVVCLTLLVRSAGAGRIEEANGTQLTLDHIAYMLERTRGNYNAVPGGELVPPAPTHRVEALNALAMALRERRMGHVIPNAQLYREIHGALMHKIERLAGPYGEKSQQREAELAALLSERLPVTGATFAELRASLAASPSWLARPYGEFGTGLEALVYETVAGATEVFEADFAMSRGMRSIPELMRALREQSYAEITKWDITDFFCCVVPAPSAKRHYEDSVLQLADNAWAMSSRMQYNSWHFIAGNLPKVPAVVERDHFIPPTIPDVAFYSDQHHHGHVASKVRFSIRSPQSVEVLGQRFNGFMDLRLLRCDGTPFDESDLLAAHRTSGFIAGAMSAAAALVAAGEEIEVTAFDSEWHLKSVQAAAARAKQPQQVS
